Source: PMC7677261
No constants are given. Whether binding was seen depends on the method and setting. Some entries that bind do so weakly or less than the wild type.

Sequences of proteins named here, by UniProt entry; tags and fusion partners are left off. A change or cut given only in a name is not applied to a line headed by its entry. Residues count along the entry.
UniProt P51885, residues 19-338: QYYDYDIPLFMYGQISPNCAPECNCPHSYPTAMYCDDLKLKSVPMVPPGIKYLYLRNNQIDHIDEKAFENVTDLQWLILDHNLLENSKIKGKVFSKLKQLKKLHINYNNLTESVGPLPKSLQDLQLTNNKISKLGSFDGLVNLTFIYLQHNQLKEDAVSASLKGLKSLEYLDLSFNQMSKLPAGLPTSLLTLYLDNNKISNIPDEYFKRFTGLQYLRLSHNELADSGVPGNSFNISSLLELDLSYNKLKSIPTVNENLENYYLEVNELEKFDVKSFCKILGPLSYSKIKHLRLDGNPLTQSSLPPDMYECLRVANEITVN
UniProt Q62469: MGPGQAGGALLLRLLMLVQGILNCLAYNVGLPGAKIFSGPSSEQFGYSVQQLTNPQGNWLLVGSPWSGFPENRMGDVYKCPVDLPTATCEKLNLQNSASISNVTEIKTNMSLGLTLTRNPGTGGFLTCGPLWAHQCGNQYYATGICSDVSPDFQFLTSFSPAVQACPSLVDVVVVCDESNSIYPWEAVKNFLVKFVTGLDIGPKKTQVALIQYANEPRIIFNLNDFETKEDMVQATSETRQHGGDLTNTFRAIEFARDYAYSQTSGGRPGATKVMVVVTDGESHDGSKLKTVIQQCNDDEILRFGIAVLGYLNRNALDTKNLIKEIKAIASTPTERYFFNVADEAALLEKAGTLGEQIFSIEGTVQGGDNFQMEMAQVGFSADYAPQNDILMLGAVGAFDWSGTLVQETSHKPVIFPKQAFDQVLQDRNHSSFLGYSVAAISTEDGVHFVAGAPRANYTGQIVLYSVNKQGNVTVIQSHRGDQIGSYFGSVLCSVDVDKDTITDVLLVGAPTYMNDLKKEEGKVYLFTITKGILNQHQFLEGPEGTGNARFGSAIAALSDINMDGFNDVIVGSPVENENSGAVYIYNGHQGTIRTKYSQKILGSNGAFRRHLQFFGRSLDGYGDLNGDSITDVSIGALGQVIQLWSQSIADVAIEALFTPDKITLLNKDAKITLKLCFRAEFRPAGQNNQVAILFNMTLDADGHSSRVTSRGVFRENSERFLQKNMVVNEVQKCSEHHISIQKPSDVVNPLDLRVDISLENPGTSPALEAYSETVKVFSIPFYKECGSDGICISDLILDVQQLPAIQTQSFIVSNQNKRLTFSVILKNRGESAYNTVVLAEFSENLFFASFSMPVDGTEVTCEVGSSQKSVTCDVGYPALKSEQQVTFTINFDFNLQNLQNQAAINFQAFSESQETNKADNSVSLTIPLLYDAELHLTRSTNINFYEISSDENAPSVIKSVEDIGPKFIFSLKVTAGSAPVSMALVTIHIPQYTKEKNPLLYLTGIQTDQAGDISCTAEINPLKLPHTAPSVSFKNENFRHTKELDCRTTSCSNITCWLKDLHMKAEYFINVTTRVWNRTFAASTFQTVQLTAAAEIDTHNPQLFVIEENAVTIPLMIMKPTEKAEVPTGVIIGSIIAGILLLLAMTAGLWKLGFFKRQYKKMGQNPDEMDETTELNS

Molecular target: lumican (UniProt P51885)
Assay: ELISA; lumican coated on Maxisorp 96-well plates (18 h, 4°C), blocked with 1% BSA in PBST; increasing amounts of MC3T3-E1 cell lysate added for 2 h; bound integrin α2 or β1 detected with antibodies and HRP-linked antibody, read at 450 nm; BSA-coated wells as control; only the target purified

binding: binds
Substance: integrin α2β1 (from UniProt Q62469 27-1178; P09055-1 21-798) (receptor)
